From the supplement of paper PMC12823440, “Inhibitors supercharge kinase turnover through native proteolytic circuits” (Nature, 2025)
This is one part of the list. Hit calls seldom repeat between salt and free forms of one compound.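 Kinases were expressed as nanoluciferase fusions in K562 cells and luminescence was read every 4 h between 2 and 18 h as percent of control, DMSO set to 100% and a positive control to 0%. A time point counts as decreased when the signal drops significantly (2 sigma). The hit call is the authors' own, does not follow from the count of time points alone, and its rule is not shown.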

Protein sequences, listed by entry. Tags and fused reporters are not part of them.
UniProt Q9UQM7, whole entry: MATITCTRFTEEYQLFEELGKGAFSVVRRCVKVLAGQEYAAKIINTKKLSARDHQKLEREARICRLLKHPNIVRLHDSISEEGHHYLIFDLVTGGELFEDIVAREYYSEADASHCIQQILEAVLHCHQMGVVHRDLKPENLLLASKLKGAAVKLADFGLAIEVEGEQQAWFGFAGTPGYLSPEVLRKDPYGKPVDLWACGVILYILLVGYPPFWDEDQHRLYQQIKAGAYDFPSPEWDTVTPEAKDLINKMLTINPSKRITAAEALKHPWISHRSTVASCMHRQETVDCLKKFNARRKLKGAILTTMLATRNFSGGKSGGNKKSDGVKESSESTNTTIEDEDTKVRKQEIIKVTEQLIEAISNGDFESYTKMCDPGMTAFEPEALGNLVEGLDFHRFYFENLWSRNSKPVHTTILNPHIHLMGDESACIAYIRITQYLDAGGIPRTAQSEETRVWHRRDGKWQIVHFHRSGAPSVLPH

These compounds were tested against CAMK2A (UniProt Q9UQM7) (assay: kinase-Nluc reporter destabilization hit call (1 = scored as downregulated) (binary); higher = compound decreases kinase abundance). Conditions: K562; 2-18 h.

| Structure (SMILES) | kinase-Nluc reporter destabilization hit call |
| --- | --- |
| COc1ccc2c(c1)/C(=C/c1cnc[nH]1)C(=O)N2 (2.5 µM) | inactive: 0 |
| CC(=O)O[C@H]1[C@H]2[C@@H](OC(=O)Cc3ccccc3)[C@@H](C)C[C@]2(OC(C)=O)C(=O)/C(C)=C/[C@@H]2[C@H](CC[C@@]13CO3)C2(C)C [Euphorbiasteroid] (10 µM) | inactive: 0 |
| O=c1[nH]c2ccccc2n1C1CCN(CCCC(c2ccc(F)cc2)c2ccc(F)cc2)CC1 [Pimozide] (2.5 µM) | inactive: 0 |
| CC(=O)Oc1ccc(/C=C/c2cc(OC(C)=O)cc(OC(C)=O)c2)cc1 [Triacetylresveratrol] (10 µM) | inactive: 0 |
| C/C=C(/C)C(=O)O[C@H]1[C@@H]2[C@H](C)C(=O)O[C@@H]2C[C@@H](C)[C@@H]2C=CC(=O)[C@]21C [Brevilin A] (2.5 µM) | inactive: 0 |
| O=[N+]([O-])/C=C/c1ccc2c(c1)OCO2 (2.5 µM) | inactive: 0 |
| O=C(O)c1nn(Cc2ccc(Cl)cc2Cl)c2ccccc12 [Lonidamine] (10 µM) | inactive: 0 |
| CC(=O)c1c(O)c(C)c(O)c(Cc2c(O)c3c(c(C(=O)/C=C/c4ccccc4)c2O)OC(C)(C)C=C3)c1O [Rottlerin] (2 µM) | inactive: 0 |
| Cn1cc(C2=C(c3cn(C4CCN(Cc5ccccn5)CC4)c4ccccc34)C(=O)NC2=O)c2ccccc21 [Enzastaurin] (10 µM) | inactive: 0 |
| Cc1ccccc1-n1c(Cn2ncc3c(N)ncnc32)nc2cccc(C)c2c1=O (10 µM) | inactive: 0 |
| O=c1[nH]c2ccccc2n1C1CCN(Cc2ccc(-c3[nH]c4cc5ncnc5cc4nc3-c3ccccc3)cc2)CC1 [AKT inhibitor VIII] (2.5 µM) | inactive: 0 |
| C=CC(=O)Nc1ccc2[nH]c(=O)n(C3CCN(Cc4ccc(-c5nc6cc[nH]c(=O)c6cc5-c5ccccc5)cc4)CC3)c2c1 [Borussertib] (10 µM) | inactive: 0 |
| C[S+]([O-])/C=C/CCN=C=S (stereo unspecified) [Sulforaphene] (10 µM) | inactive: 0 |
| CC1=C[C@]23C(=O)[C@@H](C=C(CO)[C@@H](O)[C@]2(O)[C@H]1O)[C@H]1[C@@H](C[C@H]3C)C1(C)C [Ingenol] (10 µM) | inactive: 0 |
| CCCCCCCCCCCCCCCCOC[C@H](COP(=O)([O-])OCC[N+](C)(C)C)OC(C)=O (10 µM) | inactive: 0 |
| Cc1ccccc1-n1c(Cn2cnc3c(N)ncnc32)nc2cccc(C)c2c1=O (10 µM) | inactive: 0 |
| COc1ccc2c(c1)[nH]c1c(C)nccc12 [Harmine] (10 µM) | inactive: 0 |
| O=C(N[C@@H](COc1ccc2[nH]c(=O)[nH]c2c1)c1ccccc1)c1cccn(Cc2ccc(F)c(F)c2)c1=O (2.5 µM) | inactive: 0 |
| COc1cc2c(cc1F)C(c1ccccc1Cl)=Nc1c(n[nH]c1C)N2 (0.5 µM) | inactive: 0 |
| N#CC(C#N)=Cc1ccc(O)c(O)c1 [Tyrphostin 23] (10 µM) | inactive: 0 |
| N#CC(C#N)=NNc1cccc(Cl)c1 (2.5 µM) | inactive: 0 |

Among those listed so far, three have fluorine:

| Structure (SMILES) | kinase-Nluc reporter destabilization hit call |
| --- | --- |
| O=c1[nH]c2ccccc2n1C1CCN(CCCC(c2ccc(F)cc2)c2ccc(F)cc2)CC1 [Pimozide] (2.5 µM) | inactive: 0 |
| O=C(N[C@@H](COc1ccc2[nH]c(=O)[nH]c2c1)c1ccccc1)c1cccn(Cc2ccc(F)c(F)c2)c1=O (2.5 µM) | inactive: 0 |
| COc1cc2c(cc1F)C(c1ccccc1Cl)=Nc1c(n[nH]c1C)N2 (0.5 µM) | inactive: 0 |
